Data taken from the supplement of paper PMC4604168 (melanoma cell lines).
The other results are listed elsewhere or left out. Many values rest on one well or one pass, so single values are uncertain.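 Imaging used 1,536-well plates; nuclei positive for cleaved PARP by antibody were divided by total DNA-stained nuclei to yield the apoptosis fraction. Doses for screening kept most cells viable, and cell lines differ markedly in resting and induced cleaved-PARP levels.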

Legend:
Test in all cases: cleaved PARP positive nuclei fraction relative to DMSO control; melanoma cells; higher = more apoptosis
Conditions in all cases: library dose: low library concentration; 72 h
[1] = tested on: 501Mel
[2] = tested on: A101D
[3] = tested on: A2058
[4] = tested on: A375
[5] = tested on: C32
[6] = tested on: CBRC008 (line from a melanoma biopsy)
[7] = tested on: CBRC014 (line from a melanoma biopsy)
[8] = tested on: CBRC016 (line from a melanoma biopsy)
[9] = tested on: CBRC017 (line from a melanoma biopsy)
[10] = tested on: CBRC034 (line from a melanoma biopsy)
[11] = tested on: COLO792
[12] = tested on: COLO800
[13] = tested on: COLO829
[14] = tested on: G361
[15] = tested on: IPC-298
[16] = tested on: IST-MEL1
[17] = tested on: LB2518-MEL
[18] = tested on: LOXIMVI
[19] = tested on: MEL-HO

Compound	cleaved PARP positive nuclei fraction [1] [%]	cleaved PARP positive nuclei fraction [2] [%]	cleaved PARP positive nuclei fraction [3] [%]	cleaved PARP positive nuclei fraction [4] [%]	cleaved PARP positive nuclei fraction [5] [%]	cleaved PARP positive nuclei fraction [6] [%]	cleaved PARP positive nuclei fraction [7] [%]	cleaved PARP positive nuclei fraction [8] [%]	cleaved PARP positive nuclei fraction [9] [%]	cleaved PARP positive nuclei fraction [10] [%]	cleaved PARP positive nuclei fraction [11] [%]	cleaved PARP positive nuclei fraction [12] [%]	cleaved PARP positive nuclei fraction [13] [%]	cleaved PARP positive nuclei fraction [14] [%]	cleaved PARP positive nuclei fraction [15] [%]	cleaved PARP positive nuclei fraction [16] [%]	cleaved PARP positive nuclei fraction [17] [%]	cleaved PARP positive nuclei fraction [18] [%]	cleaved PARP positive nuclei fraction [19] [%]
C=C(c1ccc(C(=O)O)cc1)c1cc2c(cc1C)C(C)(C)CCC2(C)C [Bexarotene] + C[C@]1(c2nc3c(C(N)=O)cccc3[nH]2)CCCN1 [Veliparib] (first compound 2 µM, partner dose 1.4 µM)	109	91.3	140	360	76.1	118	112	314	141	73.7	79.8	48.7	134	71	139	204	145	53.1	35.3
O=C(O)[C@@H]1[O][Sb](=[O])([O][Sb]2(=[O])[O][C@H]([C@H](O)CO)[C@H](O)[C@H](C(=O)O)[O]2)[O][C@H]([C@H](O)CO)[C@@H]1O (some centres not stated) [stibogluconate] + CNC(=O)c1cc(Oc2ccc(NC(=O)Nc3ccc(Cl)c(C(F)(F)F)c3)cc2)ccn1 [sorafenib] (first compound 2 µM, partner dose 0.4 µM)	68.2	42.6	124	340	71.5	110	91.4	102	109	75.5	128	81.8	63.4	155	65.2	542	89.9	31	81.1
Cn1c(=O)n(-c2ccc(C(C)(C)C#N)cc2)c2c3cc(-c4cnc5ccccc5c4)ccc3ncc21 + CS(=O)(=O)CCNCc1ccc(-c2ccc3ncnc(Nc4ccc(OCc5cccc(F)c5)c(Cl)c4)c3c2)o1 [lapatinib] (first compound 0.004 µM, partner dose 0.8 µM)	78.8	59.2	71.7	224	92.6	108	109	24.4	88.6	117	228	77.8	119	224	44.7	133	154	139	120
Nc1nc(F)nc2c1ncn2[C@@H]1O[C@H](CO)[C@@H](O)[C@@H]1O [fludarabine] + Nc1cccc2c1CN(C1CCC(=O)NC1=O)C2=O [lenalidomide] (first compound 0.2 µM, partner dose 1 µM)	5780	81.2	87.4	6830	90.6	147	96.5	42.9	81.8	126	104	73.6	70.5	132	89.9	138	93.1	112	168
O=C(O)c1ccc2c(c1)nc(Nc1cccc(Cl)c1)c1ccncc12 + Nc1cccc2c1CN(C1CCC(=O)NC1=O)C2=O [lenalidomide] (first compound 0.4 µM, partner dose 1 µM)	68.9	47.6	97.6	220	81.4	251	143	163	167	72.6	168	95.1	83	138	60.1	59.2	163	77.2	98.7
CS(=O)(=O)CCNCc1ccc(-c2ccc3ncnc(Nc4ccc(OCc5cccc(F)c5)c(Cl)c4)c3c2)o1 [lapatinib] + Cn1c(Nc2ccc(C(F)(F)F)cc2)nc2cc(Oc3ccnc(-c4ncc(C(F)(F)F)[nH]4)c3)ccc21 [CHIR265] (first compound 0.8 µM, partner dose 0.08 µM)	286	157	33.4	794	91.9	68	111	140	130	133	330	53.7	89	186	91.8	73.2	162	160	113
O=C(O)c1ccc2c(c1)nc(Nc1cccc(Cl)c1)c1ccncc12 + C=CCNC1=C2C[C@@H](C)C[C@H](OC)[C@H](O)[C@@H](C)/C=C(\C)[C@H](OC(N)=O)[C@@H](OC)/C=C\C=C(/C)C(=O)NC(=CC1=O)C2=O [Tanespimycin] (first compound 0.4 µM, partner dose 0.002 µM)	81.7	62.7	225	99	73.3	376	144	304	319	266	96.2	70.2	97.2	92.1	29.9	188	87.6	244	125
CC(C)C[C@H](NC(=O)[C@H](Cc1ccccc1)NC(=O)c1cnccn1)B(O)O [Bortezomib] + CS(=O)(=O)CCNCc1ccc(-c2ccc3ncnc(Nc4ccc(OCc5cccc(F)c5)c(Cl)c4)c3c2)o1 [lapatinib] (first compound 0.001 µM, partner dose 0.8 µM)	205	1040	143	74.1	77.1	213	202	666	263	91.7	38.9	70.3	196	4040	231	91.9	107	236	109
